Reference: PMC8719622
No constants are given. Whether binding was seen depends on the method and setting. Binding seen in cells or lysates may run through a third protein. Some results given as binding are weak or reduced against the parent protein; the word gives no strength. Tags and fused reporters may be left off the sequences shown.

Amino acid sequences for entries named in this document (tags omitted).
UniProt Q9UGL1: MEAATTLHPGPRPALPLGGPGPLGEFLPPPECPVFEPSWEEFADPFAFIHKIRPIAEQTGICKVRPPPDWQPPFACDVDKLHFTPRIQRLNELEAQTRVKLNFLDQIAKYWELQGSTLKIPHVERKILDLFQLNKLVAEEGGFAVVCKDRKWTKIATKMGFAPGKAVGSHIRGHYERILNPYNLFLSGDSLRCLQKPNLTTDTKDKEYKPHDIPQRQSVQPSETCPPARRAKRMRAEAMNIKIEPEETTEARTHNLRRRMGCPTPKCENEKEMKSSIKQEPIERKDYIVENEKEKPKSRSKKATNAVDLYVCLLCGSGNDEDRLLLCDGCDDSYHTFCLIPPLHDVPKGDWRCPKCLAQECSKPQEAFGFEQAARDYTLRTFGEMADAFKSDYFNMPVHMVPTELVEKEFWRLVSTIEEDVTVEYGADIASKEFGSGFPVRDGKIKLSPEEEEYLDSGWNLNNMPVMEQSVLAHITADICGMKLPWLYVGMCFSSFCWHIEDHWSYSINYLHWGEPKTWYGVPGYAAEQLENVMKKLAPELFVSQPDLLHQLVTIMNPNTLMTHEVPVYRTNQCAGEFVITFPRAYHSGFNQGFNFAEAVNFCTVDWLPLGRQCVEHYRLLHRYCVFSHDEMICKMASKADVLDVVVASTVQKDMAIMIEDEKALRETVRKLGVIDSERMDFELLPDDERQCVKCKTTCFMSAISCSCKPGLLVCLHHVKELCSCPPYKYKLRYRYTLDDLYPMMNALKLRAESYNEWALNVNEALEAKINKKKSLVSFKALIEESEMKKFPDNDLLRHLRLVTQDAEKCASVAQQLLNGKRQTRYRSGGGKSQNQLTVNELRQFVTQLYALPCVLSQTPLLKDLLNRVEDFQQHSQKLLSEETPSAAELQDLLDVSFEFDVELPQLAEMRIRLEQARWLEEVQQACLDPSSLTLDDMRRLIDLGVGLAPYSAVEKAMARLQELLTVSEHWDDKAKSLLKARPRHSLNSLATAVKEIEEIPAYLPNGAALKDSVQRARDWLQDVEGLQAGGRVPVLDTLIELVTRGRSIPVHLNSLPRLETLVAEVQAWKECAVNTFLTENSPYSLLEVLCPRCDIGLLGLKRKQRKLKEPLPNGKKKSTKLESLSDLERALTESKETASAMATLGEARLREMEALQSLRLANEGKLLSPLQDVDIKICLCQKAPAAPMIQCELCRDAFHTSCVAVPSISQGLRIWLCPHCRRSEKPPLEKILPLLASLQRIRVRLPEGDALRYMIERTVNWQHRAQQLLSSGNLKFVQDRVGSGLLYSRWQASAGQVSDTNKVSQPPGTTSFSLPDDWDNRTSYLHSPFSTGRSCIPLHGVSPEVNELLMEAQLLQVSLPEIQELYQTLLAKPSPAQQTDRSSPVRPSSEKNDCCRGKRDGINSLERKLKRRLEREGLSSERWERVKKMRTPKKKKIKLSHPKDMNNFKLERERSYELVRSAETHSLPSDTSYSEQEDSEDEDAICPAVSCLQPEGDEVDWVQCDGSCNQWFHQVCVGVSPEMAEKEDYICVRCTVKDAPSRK

Tests used:
[1] = target: FLAG-KDM5B (lysine-specific demethylase 5B) (UniProt Q9UGL1); test: co-IP; HEK293T co-transfected with FLAG-KDM5B and HA-PIAS4; lysis in Triton buffer (50 mM Tris-HCl pH 7.4, 150 mM NaCl, 1% Triton X-100); FLAG or HA antibody (IgG as negative control), protein A/G sepharose, the other tag by Western blot; under normoxia and under hypoxia (1% O2), interaction enhanced by hypoxia
[2] = target: FLAG-KDM5B (lysine-specific demethylase 5B) (UniProt Q9UGL1); test: proximity ligation; Duolink in situ PLA in fixed, permeabilised HEK293T co-transfected with FLAG-KDM5B and HA-PIAS4; mouse anti-FLAG and rabbit anti-PIAS4; red fluorescent spots

binding [1]: binds | binding [2]: binds
B1: HA-PIAS4 (protein inhibitor of activated STAT 4) (protein, UniProt Q8N2W9 1-510)
chain: MAAELVEAKNMVMSFRVSDLQMLLGFVGRSKSGLKHELVTRALQLVQFDCSPELFKKIKELYETRYAKKNSEPAPQPHRPLDPLTMHSTYDRAGAVPRTPLAGPNIDYPVLYGKYLNGLGRLPAKTLKPEVRLVKLPFFNMLDELLKPTELVPQNNEKLQESPCIFALTPRQVELIRNSRELQPGVKAVQVVLRICYSDTSCPQEDQYPPNIAVKVNHSYCSVPGYYPSNKPGVEPKRPCRPINLTHLMYLSSATNRITVTWGNYGKSYSVALYLVRQLTSSELLQRLKTIGVKHPELCKALVKEKLRLDPDSEIATTGVRVSLICPLVKMRLSVPCRAETCAHLQCFDAVFYLQMNEKKPTWMCPVCDKPAPYDQLIIDGLLSKILSECEDADEIEYLVDGSWCPIRAEKERSCSPQGAILVLGPSDANGLLPAPSVNGSGALGSTGGGGPVGSMENGKPGADVVDLTLDSSSSSEDEEEEEEEEEDEDEEGPRPKRRCPFQKGLVPAC
